Test results taken from the supplement of paper PMC10849652.
This is one part of the list.

Sequences of proteins named here, by UniProt entry; tags and fusion partners are left off. A change or cut given only in a name is not applied to a line headed by its entry.
UniProt P60983, whole entry, looked up: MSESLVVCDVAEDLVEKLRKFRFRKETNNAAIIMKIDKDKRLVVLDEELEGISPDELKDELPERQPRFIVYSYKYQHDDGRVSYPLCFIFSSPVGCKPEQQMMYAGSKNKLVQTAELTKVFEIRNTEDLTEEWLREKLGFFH
UniProt Q14789: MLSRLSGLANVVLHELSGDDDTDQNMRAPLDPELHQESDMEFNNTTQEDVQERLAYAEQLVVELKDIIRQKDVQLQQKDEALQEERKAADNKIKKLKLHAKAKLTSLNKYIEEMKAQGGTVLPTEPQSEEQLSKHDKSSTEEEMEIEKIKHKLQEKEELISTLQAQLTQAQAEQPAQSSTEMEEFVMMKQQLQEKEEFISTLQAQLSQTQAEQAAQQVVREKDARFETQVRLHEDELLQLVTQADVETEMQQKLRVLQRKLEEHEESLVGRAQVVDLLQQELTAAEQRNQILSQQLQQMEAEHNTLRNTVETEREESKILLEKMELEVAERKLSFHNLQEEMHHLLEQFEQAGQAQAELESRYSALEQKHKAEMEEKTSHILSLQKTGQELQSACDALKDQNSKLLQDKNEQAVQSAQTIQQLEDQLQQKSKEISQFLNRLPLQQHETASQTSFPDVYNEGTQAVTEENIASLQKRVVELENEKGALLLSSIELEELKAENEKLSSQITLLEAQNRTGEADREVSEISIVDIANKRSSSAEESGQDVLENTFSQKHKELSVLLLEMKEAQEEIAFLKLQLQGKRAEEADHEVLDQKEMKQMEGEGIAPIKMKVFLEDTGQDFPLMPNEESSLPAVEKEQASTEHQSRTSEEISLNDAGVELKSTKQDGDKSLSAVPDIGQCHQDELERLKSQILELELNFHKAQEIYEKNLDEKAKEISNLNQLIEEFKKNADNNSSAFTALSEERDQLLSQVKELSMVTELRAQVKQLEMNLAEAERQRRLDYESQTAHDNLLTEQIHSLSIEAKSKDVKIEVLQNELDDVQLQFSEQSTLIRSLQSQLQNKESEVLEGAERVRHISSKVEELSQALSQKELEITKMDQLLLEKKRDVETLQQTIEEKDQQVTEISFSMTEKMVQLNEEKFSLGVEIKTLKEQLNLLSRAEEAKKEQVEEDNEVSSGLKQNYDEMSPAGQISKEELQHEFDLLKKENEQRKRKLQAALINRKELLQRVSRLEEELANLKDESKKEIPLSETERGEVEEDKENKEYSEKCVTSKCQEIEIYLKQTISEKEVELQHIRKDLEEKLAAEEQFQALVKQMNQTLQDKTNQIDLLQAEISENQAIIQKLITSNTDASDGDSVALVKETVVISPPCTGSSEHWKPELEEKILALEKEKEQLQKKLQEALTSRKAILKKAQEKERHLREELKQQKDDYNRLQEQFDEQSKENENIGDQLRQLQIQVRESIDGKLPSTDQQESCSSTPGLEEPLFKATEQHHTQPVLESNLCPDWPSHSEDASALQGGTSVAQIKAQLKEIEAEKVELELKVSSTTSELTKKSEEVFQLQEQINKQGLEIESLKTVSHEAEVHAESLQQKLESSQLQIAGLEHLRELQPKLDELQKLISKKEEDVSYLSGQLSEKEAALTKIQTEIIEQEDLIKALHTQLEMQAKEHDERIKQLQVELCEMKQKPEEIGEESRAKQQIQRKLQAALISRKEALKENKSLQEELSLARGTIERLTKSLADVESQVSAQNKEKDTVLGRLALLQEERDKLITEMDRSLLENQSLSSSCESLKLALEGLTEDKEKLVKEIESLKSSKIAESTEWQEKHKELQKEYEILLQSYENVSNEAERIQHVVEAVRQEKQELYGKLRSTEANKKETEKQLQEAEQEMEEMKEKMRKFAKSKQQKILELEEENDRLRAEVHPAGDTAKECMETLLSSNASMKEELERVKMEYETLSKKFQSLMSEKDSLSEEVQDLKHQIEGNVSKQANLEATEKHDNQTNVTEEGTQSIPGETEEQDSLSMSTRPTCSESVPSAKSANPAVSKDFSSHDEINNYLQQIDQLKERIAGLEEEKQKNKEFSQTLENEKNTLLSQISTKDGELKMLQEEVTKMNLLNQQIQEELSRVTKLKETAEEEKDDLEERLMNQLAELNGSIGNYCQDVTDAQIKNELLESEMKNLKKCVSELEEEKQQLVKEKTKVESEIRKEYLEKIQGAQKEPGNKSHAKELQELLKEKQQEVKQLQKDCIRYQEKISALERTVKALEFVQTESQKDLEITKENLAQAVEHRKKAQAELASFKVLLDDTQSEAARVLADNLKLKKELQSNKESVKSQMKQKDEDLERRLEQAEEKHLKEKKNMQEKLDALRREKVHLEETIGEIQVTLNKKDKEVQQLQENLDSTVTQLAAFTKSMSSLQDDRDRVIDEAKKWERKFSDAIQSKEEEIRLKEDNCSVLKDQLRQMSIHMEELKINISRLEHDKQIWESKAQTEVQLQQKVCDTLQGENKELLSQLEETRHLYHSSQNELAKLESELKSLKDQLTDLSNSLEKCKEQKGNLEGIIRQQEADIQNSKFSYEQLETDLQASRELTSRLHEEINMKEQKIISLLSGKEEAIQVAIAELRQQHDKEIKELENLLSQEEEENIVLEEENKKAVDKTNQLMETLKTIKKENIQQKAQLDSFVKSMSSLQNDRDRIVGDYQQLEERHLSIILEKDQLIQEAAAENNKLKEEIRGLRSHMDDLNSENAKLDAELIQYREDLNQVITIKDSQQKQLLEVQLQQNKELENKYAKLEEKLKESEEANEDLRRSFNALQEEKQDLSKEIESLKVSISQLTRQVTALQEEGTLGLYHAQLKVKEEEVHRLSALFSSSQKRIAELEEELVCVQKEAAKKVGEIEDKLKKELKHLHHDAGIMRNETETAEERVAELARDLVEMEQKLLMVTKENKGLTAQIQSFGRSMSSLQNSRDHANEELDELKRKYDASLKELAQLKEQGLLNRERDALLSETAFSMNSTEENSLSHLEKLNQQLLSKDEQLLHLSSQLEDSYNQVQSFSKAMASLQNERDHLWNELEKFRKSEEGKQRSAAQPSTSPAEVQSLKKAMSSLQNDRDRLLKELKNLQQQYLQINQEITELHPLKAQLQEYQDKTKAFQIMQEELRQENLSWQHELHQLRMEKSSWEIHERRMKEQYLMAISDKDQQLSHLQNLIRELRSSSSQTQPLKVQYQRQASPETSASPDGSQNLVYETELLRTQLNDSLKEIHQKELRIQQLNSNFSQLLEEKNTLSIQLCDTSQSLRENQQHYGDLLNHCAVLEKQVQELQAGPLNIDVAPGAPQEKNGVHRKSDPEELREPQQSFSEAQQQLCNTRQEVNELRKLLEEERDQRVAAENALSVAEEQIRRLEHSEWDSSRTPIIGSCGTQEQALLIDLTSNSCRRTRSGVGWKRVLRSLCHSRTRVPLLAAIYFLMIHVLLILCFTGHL
UniProt Q9NS18: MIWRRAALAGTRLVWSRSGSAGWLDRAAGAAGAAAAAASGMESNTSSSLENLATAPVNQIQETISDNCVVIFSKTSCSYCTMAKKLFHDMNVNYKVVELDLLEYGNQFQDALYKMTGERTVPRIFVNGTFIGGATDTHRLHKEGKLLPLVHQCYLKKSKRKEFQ
UniProt Q86VQ1: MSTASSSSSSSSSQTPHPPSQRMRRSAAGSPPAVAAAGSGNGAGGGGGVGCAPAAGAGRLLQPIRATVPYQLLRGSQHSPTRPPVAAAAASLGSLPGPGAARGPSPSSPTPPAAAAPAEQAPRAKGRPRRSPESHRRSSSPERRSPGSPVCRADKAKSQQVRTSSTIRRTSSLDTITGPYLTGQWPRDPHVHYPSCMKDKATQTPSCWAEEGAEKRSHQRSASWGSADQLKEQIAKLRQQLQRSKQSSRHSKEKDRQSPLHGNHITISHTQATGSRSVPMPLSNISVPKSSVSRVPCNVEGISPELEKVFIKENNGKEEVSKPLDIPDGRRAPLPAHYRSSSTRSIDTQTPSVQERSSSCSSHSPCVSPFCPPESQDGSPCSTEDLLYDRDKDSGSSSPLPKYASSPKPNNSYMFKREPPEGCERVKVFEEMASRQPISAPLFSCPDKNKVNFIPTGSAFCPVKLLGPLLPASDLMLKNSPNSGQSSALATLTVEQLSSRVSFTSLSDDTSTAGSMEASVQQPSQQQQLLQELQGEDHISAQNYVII
UniProt Q7Z2K8: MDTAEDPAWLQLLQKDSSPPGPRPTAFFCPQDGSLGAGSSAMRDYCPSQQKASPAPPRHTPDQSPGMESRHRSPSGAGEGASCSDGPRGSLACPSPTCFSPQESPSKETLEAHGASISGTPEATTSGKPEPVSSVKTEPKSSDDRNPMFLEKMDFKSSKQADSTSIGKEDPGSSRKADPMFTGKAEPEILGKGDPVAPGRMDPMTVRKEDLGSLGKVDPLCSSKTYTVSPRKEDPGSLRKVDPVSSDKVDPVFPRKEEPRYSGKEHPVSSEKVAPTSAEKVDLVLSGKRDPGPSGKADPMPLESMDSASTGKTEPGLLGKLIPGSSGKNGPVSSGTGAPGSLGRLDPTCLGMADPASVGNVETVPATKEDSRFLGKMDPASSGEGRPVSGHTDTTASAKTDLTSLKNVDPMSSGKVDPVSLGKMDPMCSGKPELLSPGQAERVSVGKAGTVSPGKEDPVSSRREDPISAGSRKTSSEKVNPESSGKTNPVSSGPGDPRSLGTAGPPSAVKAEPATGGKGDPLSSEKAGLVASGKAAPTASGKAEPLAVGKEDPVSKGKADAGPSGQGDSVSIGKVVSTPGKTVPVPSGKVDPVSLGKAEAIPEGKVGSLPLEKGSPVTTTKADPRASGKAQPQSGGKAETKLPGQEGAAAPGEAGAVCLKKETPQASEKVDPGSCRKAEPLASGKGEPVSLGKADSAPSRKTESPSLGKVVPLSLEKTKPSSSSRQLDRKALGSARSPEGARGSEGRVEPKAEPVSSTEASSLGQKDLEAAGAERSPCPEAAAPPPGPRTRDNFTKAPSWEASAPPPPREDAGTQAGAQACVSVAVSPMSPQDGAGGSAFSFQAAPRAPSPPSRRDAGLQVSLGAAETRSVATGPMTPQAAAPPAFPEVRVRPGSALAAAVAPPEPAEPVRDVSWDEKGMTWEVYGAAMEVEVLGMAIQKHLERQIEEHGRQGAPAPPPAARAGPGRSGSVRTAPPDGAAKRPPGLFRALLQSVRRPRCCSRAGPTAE
UniProt P36969, whole entry, looked up: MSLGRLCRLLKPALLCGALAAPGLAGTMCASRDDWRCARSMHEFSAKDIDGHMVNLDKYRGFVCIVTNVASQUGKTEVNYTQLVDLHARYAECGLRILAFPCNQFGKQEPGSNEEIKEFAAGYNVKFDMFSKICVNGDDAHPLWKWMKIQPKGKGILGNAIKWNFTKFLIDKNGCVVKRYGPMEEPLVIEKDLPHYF
UniProt P36959: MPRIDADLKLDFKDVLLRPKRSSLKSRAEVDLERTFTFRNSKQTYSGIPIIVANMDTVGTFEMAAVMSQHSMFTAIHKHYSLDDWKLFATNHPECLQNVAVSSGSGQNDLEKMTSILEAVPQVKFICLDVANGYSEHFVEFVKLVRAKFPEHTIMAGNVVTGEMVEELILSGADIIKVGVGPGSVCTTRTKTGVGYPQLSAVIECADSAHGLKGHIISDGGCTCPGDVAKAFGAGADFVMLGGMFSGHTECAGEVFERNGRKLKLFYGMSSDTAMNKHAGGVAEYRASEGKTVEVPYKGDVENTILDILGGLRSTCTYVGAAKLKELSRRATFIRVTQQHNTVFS
UniProt Q9Y692: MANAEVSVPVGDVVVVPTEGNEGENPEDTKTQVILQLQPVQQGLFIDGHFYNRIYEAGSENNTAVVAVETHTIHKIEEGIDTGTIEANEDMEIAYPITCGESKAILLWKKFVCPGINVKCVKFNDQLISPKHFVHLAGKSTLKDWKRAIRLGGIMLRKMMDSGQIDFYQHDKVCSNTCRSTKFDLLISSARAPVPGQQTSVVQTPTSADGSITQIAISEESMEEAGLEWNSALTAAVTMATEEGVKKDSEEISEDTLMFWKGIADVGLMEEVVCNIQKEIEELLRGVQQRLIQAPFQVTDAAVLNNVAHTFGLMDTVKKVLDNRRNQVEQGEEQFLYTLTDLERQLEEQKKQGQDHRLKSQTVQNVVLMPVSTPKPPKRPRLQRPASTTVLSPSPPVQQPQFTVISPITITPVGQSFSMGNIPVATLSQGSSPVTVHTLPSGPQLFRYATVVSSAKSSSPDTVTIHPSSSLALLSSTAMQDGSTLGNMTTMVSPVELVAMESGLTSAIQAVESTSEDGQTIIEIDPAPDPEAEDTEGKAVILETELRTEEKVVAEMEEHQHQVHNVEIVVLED
UniProt P08754, whole entry, looked up: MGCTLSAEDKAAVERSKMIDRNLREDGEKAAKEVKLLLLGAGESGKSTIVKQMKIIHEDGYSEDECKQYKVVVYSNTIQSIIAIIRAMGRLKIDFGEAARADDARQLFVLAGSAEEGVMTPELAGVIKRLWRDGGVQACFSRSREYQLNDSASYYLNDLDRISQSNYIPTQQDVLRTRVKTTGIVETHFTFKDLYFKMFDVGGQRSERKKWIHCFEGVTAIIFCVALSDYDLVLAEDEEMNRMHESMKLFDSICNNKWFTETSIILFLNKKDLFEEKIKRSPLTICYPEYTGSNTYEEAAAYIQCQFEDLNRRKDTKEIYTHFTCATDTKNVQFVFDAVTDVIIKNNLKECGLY

compound: CC1=C2C(=CC=C1)N=C(N(C2=O)C3=CC=CC=C3C)CN4C=NC5=C(N=CN=C54)N; experiment: log2 fold change, soluble protein after heating vs DMSO (PISA); higher = thermal stabilisation; K562 cells, 10 uM, 30 min; active = over 0.2 and 3.5 SD of the protein, either way, in both replicates (recomputed)
In short: (§1)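 K562 cells at 2×10^6 cells/mL were exposed to 10 μM compound for 30 min, then aliquots were heated for 3 min across 48°C-58°C, pooled, and extracted in PBS containing 0.5% NP-40 at 4°C. The supernatant after 21,000xg for 90 min was taken as soluble protein and measured by TMTpro 16plex LC-MS/MS with channel sums equalised. Thermal stability is reported relative to control samples, with values from duplicates. Fold changes are given on a log2 scale.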

| Target | log2 fold change |
| --- | --- |
| GID8 (UniProt Q9NWU2) | inactive: 0.047 |
| GRIPAP1 (UniProt Q4V328) | inactive: -0.01 |
| GMFB (UniProt P60983) | inactive: 0.014 |
| GOLGB1 isoform 2 (UniProt Q14789) | inactive: 0.018 |
| GIPC1 (UniProt O14908) | inactive: 0.119 |
| GLRX2 isoform 2 (UniProt Q9NS18) | inactive: -0.053 |
| GNB1L (UniProt Q9BYB4) | inactive: -0.023 |
| GNA13 (UniProt Q14344) | inactive: 0.105 |
| GRK2 (UniProt P25098) | inactive: 0.094 |
| GPD1L (UniProt Q8N335) | inactive: 0.058 |
| GPI (UniProt P06744) | inactive: 0.013 |

compound: Cc1sc2c(c1C)C(c1ccc(Cl)cc1)=N[C@@H](CC(=O)OC(C)(C)C)c1nnc(C)n1-2; experiment: as above
In short: as §1

| Target | log2 fold change |
| --- | --- |
| GIGYF2 (UniProt Q6Y7W6) | inactive: 0.012 |
| GPALPP1 (UniProt Q8IXQ4) | inactive: 0.02 |
| GPN2 (UniProt Q9H9Y4) | inactive: -0.016 |
| GNL3 (UniProt Q9BVP2) | inactive: -0.131 |
| GLCCI1 (UniProt Q86VQ1) | inactive: 0.013 |
| GPRIN1 (UniProt Q7Z2K8) | inactive: 0.033 |
| GNB1 (UniProt P62873) | inactive: -0.125 |
| GOLT1B (UniProt Q9Y3E0) | inactive: -0.052 |
| GLUD1 (UniProt P00367) | inactive: 0.071 |
| GPX4 (UniProt P36969) | inactive: -0.064 |
| GOLIM4 (UniProt O00461) | inactive: -0.022 |
| GRB2 (UniProt P62993) | inactive: -0.004 |
| GPHN isoform 2 (UniProt Q9NQX3) | inactive: 0 |
| GMPPB isoform 2 (UniProt Q9Y5P6) | inactive: -0.017 |
| GOT2 (UniProt P00505) | inactive: -0.005 |
| GMPR (UniProt P36959) | inactive: -0.017 |
| GMEB1 (UniProt Q9Y692) | inactive: 0.024 |

| Target | log2 fold change |
| --- | --- |
| GOSR1 (UniProt O95249) | inactive: 0.016 |
| GPATCH8 (UniProt Q9UKJ3) | inactive: 0.006 |
| GPAT3 (UniProt Q53EU6) | inactive: -0.092 |
| GOLIM4 (UniProt F8W785) | inactive: 0.014 |
| GNAI3 (UniProt P08754) | inactive: -0.154 |
| GLYR1 (UniProt Q49A26) | inactive: 0.058 |
| GID8 (UniProt Q9NWU2) | inactive: -0.011 |
| GRIPAP1 (UniProt Q4V328) | inactive: 0.043 |
| GMFB (UniProt P60983) | inactive: -0.013 |
| GOLGB1 isoform 2 (UniProt Q14789) | inactive: 0.013 |
| GIPC1 (UniProt O14908) | inactive: -0.006 |
| GLRX2 isoform 2 (UniProt Q9NS18) | inactive: 0.005 |
| GNB1L (UniProt Q9BYB4) | inactive: -0.046 |
| GNA13 (UniProt Q14344) | inactive: -0.052 |
| GRK2 (UniProt P25098) | inactive: -0.016 |
| GPD1L (UniProt Q8N335) | inactive: 0.003 |
| GPI (UniProt P06744) | inactive: -0.031 |
